PubChem BioAssay AID686938 | Drosophila RNAi Screening Center – 2013
Assay: 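Fly genes required for calcium entry once internal stores are emptied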 (primary screen). Cells: Drosophila S2R+ cells. Reagent: long dsRNA against Drosophila genes, about 0.25 µg dsRNA per well, roughly 10,000 cells. Timing: 5 days of knock-down before the calcium assay. Challenge: thapsigargin (SERCA pump blocker) to empty calcium stores; entry signal taken 4 min after adding it. Detection: 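Duplicate raw fluo-4 intensities per well from a plate reader, at rest and four minutes after thapsigargin emptied calcium stores; entry-to-rest ratio filled for only some wells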. Reading the numbers: calcium entry signal: higher = stronger calcium signal after store depletion; resting calcium signal: higher = higher resting calcium signal. Hit rule: 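Hit if the duplicate-averaged plate z-score for entry over resting signal is under −3; wells with weak total dye signal (Fmax z < −2) or more than 5 off-targets removed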. Meaning of the calls: active = strongly reduced calcium entry; inactive = no strong reduction.
The deposit covers about 23,000 reagents; this is a random part of those with a known target gene and a result. In the full data, 75 (0.33%) got an active call. 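Raw plate signals without normalisation; calls rest on plate z-scores that were not deposited; ratio present for only 364 wells.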 Unmarked entries are inactive. Names joined by + are all predicted targets of the reagent. No sequences are given here. Not given: the dose of the treatment.

CG17751 [DRSC15261] — calcium entry signal, replicate 1 (fluorescence units): 4.43e7; calcium entry signal, replicate 2 (fluorescence units): 4.21e7; resting calcium signal, replicate 1 (fluorescence units): 3.55e7; resting calcium signal, replicate 2 (fluorescence units): 2.07e7
CG17751 [DRSC22837] — calcium entry signal, replicate 1 (fluorescence units): 2.73e7; calcium entry signal, replicate 2 (fluorescence units): 3.79e7; resting calcium signal, replicate 1 (fluorescence units): 1.28e7; resting calcium signal, replicate 2 (fluorescence units): 1.54e7
CG17508 [DRSC07771] — calcium entry signal, replicate 1 (fluorescence units): 2.96e7; calcium entry signal, replicate 2 (fluorescence units): 3.85e7; resting calcium signal, replicate 1 (fluorescence units): 1.49e7; resting calcium signal, replicate 2 (fluorescence units): 1.69e7
Best1 (Bestrophin 1) [DRSC16909] — calcium entry signal, replicate 1 (fluorescence units): 3.69e7; calcium entry signal, replicate 2 (fluorescence units): 2.86e7; resting calcium signal, replicate 1 (fluorescence units): 1.77e7; resting calcium signal, replicate 2 (fluorescence units): 1.52e7
CG42376 + cin [DRSC18752] — calcium entry signal, replicate 1 (fluorescence units): 4.05e7; calcium entry signal, replicate 2 (fluorescence units): 3.87e7; resting calcium signal, replicate 1 (fluorescence units): 1.86e7; resting calcium signal, replicate 2 (fluorescence units): 1.91e7
CG12499 [DRSC14521] — calcium entry signal, replicate 1 (fluorescence units): 2.09e7; calcium entry signal, replicate 2 (fluorescence units): 2.21e7; resting calcium signal, replicate 1 (fluorescence units): 6.95e7; resting calcium signal, replicate 2 (fluorescence units): 1.25e7
CG34436 [DRSC15164] — calcium entry signal, replicate 1 (fluorescence units): 3.19e7; calcium entry signal, replicate 2 (fluorescence units): 4.47e7; resting calcium signal, replicate 1 (fluorescence units): 1.71e7; resting calcium signal, replicate 2 (fluorescence units): 2.01e7
Syn (Synapsin) [DRSC16876] — calcium entry signal, replicate 1 (fluorescence units): 2.98e7; calcium entry signal, replicate 2 (fluorescence units): 2.82e7; resting calcium signal, replicate 1 (fluorescence units): 1.38e7; resting calcium signal, replicate 2 (fluorescence units): 1.50e7
Tom20 (Translocase of outer membrane 20) [DRSC10899] — calcium entry signal, replicate 1 (fluorescence units): 3.33e7; calcium entry signal, replicate 2 (fluorescence units): 4.03e7; resting calcium signal, replicate 1 (fluorescence units): 1.61e7; resting calcium signal, replicate 2 (fluorescence units): 2.70e7
Cpr11A (Cuticular protein 11A) [DRSC19861] — calcium entry signal, replicate 1 (fluorescence units): 4.34e7; calcium entry signal, replicate 2 (fluorescence units): 3.06e7; resting calcium signal, replicate 1 (fluorescence units): 2.07e7; resting calcium signal, replicate 2 (fluorescence units): 1.46e7
Or43b (Odorant receptor 43b) [DRSC07486] — calcium entry signal, replicate 1 (fluorescence units): 3.84e7; calcium entry signal, replicate 2 (fluorescence units): 3.22e7; resting calcium signal, replicate 1 (fluorescence units): 1.77e7; resting calcium signal, replicate 2 (fluorescence units): 1.78e7
Apc (APC-like) [DRSC14114] — calcium entry signal, replicate 1 (fluorescence units): 3.72e7; calcium entry signal, replicate 2 (fluorescence units): 5.91e7; resting calcium signal, replicate 1 (fluorescence units): 1.90e7; resting calcium signal, replicate 2 (fluorescence units): 2.56e7
CR11386 + CR33222 [DRSC17781] — calcium entry signal, replicate 1 (fluorescence units): 2.13e7; calcium entry signal, replicate 2 (fluorescence units): 3.99e7; resting calcium signal, replicate 1 (fluorescence units): 1.17e7; resting calcium signal, replicate 2 (fluorescence units): 1.85e7
Hnf4 (Hepatocyte nuclear factor 4) [DRSC01032] — calcium entry signal, replicate 1 (fluorescence units): 4.08e7; calcium entry signal, replicate 2 (fluorescence units): 4.90e7; resting calcium signal, replicate 1 (fluorescence units): 2.18e7; resting calcium signal, replicate 2 (fluorescence units): 2.23e7
Hnf4 (Hepatocyte nuclear factor 4) [DRSC03344] — calcium entry signal, replicate 1 (fluorescence units): 4.53e7; calcium entry signal, replicate 2 (fluorescence units): 2.75e7; resting calcium signal, replicate 1 (fluorescence units): 2.52e7; resting calcium signal, replicate 2 (fluorescence units): 1.58e7
CG31262 [DRSC13216] — calcium entry signal, replicate 1 (fluorescence units): 3.45e7; calcium entry signal, replicate 2 (fluorescence units): 3.23e7; resting calcium signal, replicate 1 (fluorescence units): 1.72e7; resting calcium signal, replicate 2 (fluorescence units): 1.54e7
Ntmt (N-terminal methyltransferase) [DRSC06624] — calcium entry signal, replicate 1 (fluorescence units): 3.61e7; calcium entry signal, replicate 2 (fluorescence units): 3.59e7; resting calcium signal, replicate 1 (fluorescence units): 1.80e7; resting calcium signal, replicate 2 (fluorescence units): 1.62e7
Jon66Ci (Jonah 66Ci) [DRSC10772] — calcium entry signal, replicate 1 (fluorescence units): 2.41e7; calcium entry signal, replicate 2 (fluorescence units): 3.47e7; resting calcium signal, replicate 1 (fluorescence units): 1.14e7; resting calcium signal, replicate 2 (fluorescence units): 1.54e7
Pk34A (Protein kinase at 34A) [DRSC03398] — calcium entry signal, replicate 1 (fluorescence units): 4.57e7; calcium entry signal, replicate 2 (fluorescence units): 3.25e7; resting calcium signal, replicate 1 (fluorescence units): 2.11e7; resting calcium signal, replicate 2 (fluorescence units): 1.57e7
CG8349 [DRSC03083] — calcium entry signal, replicate 1 (fluorescence units): 3.57e7; calcium entry signal, replicate 2 (fluorescence units): 4.94e7; resting calcium signal, replicate 1 (fluorescence units): 1.66e7; resting calcium signal, replicate 2 (fluorescence units): 2.10e7
CG34398 [DRSC01052] — calcium entry signal, replicate 1 (fluorescence units): 6.16e7; calcium entry signal, replicate 2 (fluorescence units): 2.83e7; resting calcium signal, replicate 1 (fluorescence units): 2.85e7; resting calcium signal, replicate 2 (fluorescence units): 1.47e7
CG34398 [DRSC02510] — calcium entry signal, replicate 1 (fluorescence units): 1.87e7; calcium entry signal, replicate 2 (fluorescence units): 2.65e7; resting calcium signal, replicate 1 (fluorescence units): 9.03e6; resting calcium signal, replicate 2 (fluorescence units): 1.28e7
CG34398 [DRSC02511] — calcium entry signal, replicate 1 (fluorescence units): 5.29e7; resting calcium signal, replicate 1 (fluorescence units): 2.44e7
CG34398 [DRSC03228] — calcium entry signal, replicate 1 (fluorescence units): 2.18e7; calcium entry signal, replicate 2 (fluorescence units): 2.95e7; resting calcium signal, replicate 1 (fluorescence units): 1.04e7; resting calcium signal, replicate 2 (fluorescence units): 1.32e7
CG34398 [DRSC23293] — calcium entry signal, replicate 1 (fluorescence units): 3.94e7; calcium entry signal, replicate 2 (fluorescence units): 2.53e7; resting calcium signal, replicate 1 (fluorescence units): 1.82e7; resting calcium signal, replicate 2 (fluorescence units): 1.26e7
CG3402 [DRSC08567] — calcium entry signal, replicate 1 (fluorescence units): 3.95e7; calcium entry signal, replicate 2 (fluorescence units): 4.22e7; resting calcium signal, replicate 1 (fluorescence units): 1.90e7; resting calcium signal, replicate 2 (fluorescence units): 2.03e7
elg1 (enhanced level of genomic instability 1) [DRSC10229] — calcium entry signal, replicate 1 (fluorescence units): 3.86e7; calcium entry signal, replicate 2 (fluorescence units): 4.71e7; resting calcium signal, replicate 1 (fluorescence units): 1.80e7; resting calcium signal, replicate 2 (fluorescence units): 3.23e7

Not a retest: 2 of the entries above.
Hnf4 (Hepatocyte nuclear factor 4) [DRSC01032] — calcium entry signal, replicate 1 (fluorescence units): 4.08e7; calcium entry signal, replicate 2 (fluorescence units): 4.90e7; resting calcium signal, replicate 1 (fluorescence units): 2.18e7; resting calcium signal, replicate 2 (fluorescence units): 2.23e7
Hnf4 (Hepatocyte nuclear factor 4) [DRSC03344] — calcium entry signal, replicate 1 (fluorescence units): 4.53e7; calcium entry signal, replicate 2 (fluorescence units): 2.75e7; resting calcium signal, replicate 1 (fluorescence units): 2.52e7; resting calcium signal, replicate 2 (fluorescence units): 1.58e7
